The inconclusive results got no clear call from the source; some entries with a clear call stand among them for comparison. A potency beside an inconclusive call is a rough fit, not a confirmed value. Calls of active or inactive are those of the source. How the source made its calls: active means hit-call score of the fitted dose curve at least 0.9, where 1 is the maximum; inconclusive means response in the unintended direction; inactive means score below 0.9.
Assay: TOX21_p53_BLA_p3_viability: Viability Assessment in the Tox21 HCT-116 p53 Agonism Beta-lactamase Assay, Phase 3 (AID 2283593);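 further: cells exposed to compound for 16 h before reading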
Method in brief: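 HCT116 cells, 4000/well, dosed 5 h after plating by pin transfer (217-fold dilution from DMSO stock) and incubated 16 h at 37C, 5% CO2. Viability read as ATP luminescence with CellTiter-Glo after 30 min at room temperature.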

Row | SMILES | outcome | AC50
1 | Clc1ccc2cc3ccccc3cc2c1 | inactive | 
2 | C/C=C/c1ccc(OCC)c(O)c1 |  | inconclusive: 46.1 µM
3 | CCN(O)CC | inactive | 
4 | Clc1ccc(Cn2c(CN3CCCC3)nc3ccccc32)cc1 | inactive | 
5 | CCC(Cc1c(I)cc(I)c(O)c1I)C(=O)O (centres undefined) |  | inconclusive: 23 µM
6 | CC(=NO)C(C)=NO | inactive | 
7 | CCCCCCCC |  | inconclusive: 45.8 µM
8 | CCOC(=O)NCCC[Si](OCC)(OCC)OCC |  | inconclusive: 84.4 µM
9 | Cc1onc(-c2ccccc2)c1C(=O)N[C@@H]1C(=O)N2[C@@H]1SC(C)(C)[C@@H]2C(=O)O |  | inconclusive: 23 µM
10 | CC(=O)c1ccc2c(c1)N(CCCN(C)C)c1ccccc1S2 |  | inconclusive: 10.3 µM
11 | CN1C[C@H](C(=O)N[C@]2(C)O[C@@]3(O)[C@@H]4CCCN4C(=O)[C@H](Cc4ccccc4)N3C2=O)C[C@@H]2c3cccc4[nH]cc(c34)C[C@H]21 | inactive | 
12 | COc1ccc(OC)c(NC(=O)CC(C)=O)c1 | inactive | 
13 | CCC(C)SSC(C)CC (centres undefined) |  | inconclusive: 46.1 µM
14 | CCN(Cc1ccccc1)c1ccccc1 |  | inconclusive: 45.6 µM
15 | Clc1ccccc1-c1nc(-c2ccncc2)no1 |  | inconclusive: 23 µM
16 | O=C1C2CC3CC1CC(O)(C3)C2 | inactive | 
17 | O=C(Cc1cccs1)N[C@@H]1C(=O)N2C(C(=O)[O-])=C(C[n+]3ccccc3)CS[C@H]12 |  | inconclusive: 23 µM
18 | Nc1nc2c(ncn2CCC(CO)CO)c(=O)[nH]1 |  | inconclusive: 23 µM
19 | O=C1OC(=O)C2CCCCC12 (centres undefined) |  | inconclusive: 46 µM

Exported with tabs: 2 of the compounds above
Row	SMILES	outcome	AC50
18	Nc1nc2c(ncn2CCC(CO)CO)c(=O)[nH]1		inconclusive: 23 µM
19	O=C1OC(=O)C2CCCCC12 (centres undefined)		inconclusive: 46 µM

Source: PubChem BioAssay (EPA / NIEHS)
